Record: PubChem BioAssay AID1259405 (NCATS, 2018)
The whole screen tested about 50,000 reagents; this is a part drawn at random. About 4,000 of all reagents (8%) were called active. 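Mouse siRNA library applied to hamster cells; one well for each siRNA.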 Unmarked entries are inactive. The numbers tell different reagents against one gene apart.

Aim: 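Silenced genes that increase secreted GFP made by CHO cells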 (primary screen)
System: Chinese hamster CHO-K1 ovary cells with stable secreted eGFP expression
Reagents: single siRNA against mouse genes, 0.8 pmol siRNA per well (2 µl of 400 nM stock)
Timing: 3 days
Detection: 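Per-well intracellular GFP measured by laser scanning cytometry, plus viability from ATP luminescence, each relative to plate median of non-targeting control wells, in %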
Scale: GFP, % of control: higher = more GFP per well, higher productivity; viability (ATP), % of control: higher = more viable cells (more ATP)
Active means: 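Called active when intracellular GFP, relative to negative control, is at or above 120%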

gene,siRNA no.,"GFP, % of control","viability (ATP), % of control"
Lin28b (lin-28 homolog B),1,95.1,94.3
Lin28b (lin-28 homolog B),2,110,81.8
Lin28b (lin-28 homolog B),3,58,52.9
Snap23 (synaptosomal-associated protein 23),1,77.8,70.4
Snap23 (synaptosomal-associated protein 23),2,76.6,57.2
Anxa10 (annexin A10),1,89.8,89.8
Anxa10 (annexin A10),2,164 (active),124
Anxa10 (annexin A10),3,51.4,82.1
Pparg (peroxisome proliferator activated receptor gamma),1,62.4,87.6
Pparg (peroxisome proliferator activated receptor gamma),2,51.5,80.9
Pparg (peroxisome proliferator activated receptor gamma),3,124 (active),112
Lpar6 (lysophosphatidic acid receptor 6),1,90.7,81.2
Lpar6 (lysophosphatidic acid receptor 6),2,70,71.4
Lpar6 (lysophosphatidic acid receptor 6),3,74,30.1
"Ssr1 (signal sequence receptor, alpha)",1,98.7,118
"Ssr1 (signal sequence receptor, alpha)",2,62.6,88.8
Or51h5 (olfactory receptor family 51 subfamily H member 5),1,31.5,31.8
Or51h5 (olfactory receptor family 51 subfamily H member 5),2,60.3,44.2
Or51h5 (olfactory receptor family 51 subfamily H member 5),3,71.4,83.9
Sdcbp2 (syndecan binding protein (syntenin) 2),1,18.6,22.3
Sdcbp2 (syndecan binding protein (syntenin) 2),2,58.3,52.6
Sdcbp2 (syndecan binding protein (syntenin) 2),3,54.9,49
Gpatch2 (G patch domain containing 2),1,63.1,73.4
Gpatch2 (G patch domain containing 2),2,72.3,64.9
Gpatch2 (G patch domain containing 2),3,52,52.6
Etv4 (ets variant 4),1,55.1,61
Etv4 (ets variant 4),2,152 (active),113
Pcdhb17 (protocadherin beta 17),1,79.3,84.4
Pcdhb17 (protocadherin beta 17),2,88.2,81.7
Or2w4 (olfactory receptor family 2 subfamily W member 4),1,69.6,52.6
Or2w4 (olfactory receptor family 2 subfamily W member 4),2,79.2,88
Or2w4 (olfactory receptor family 2 subfamily W member 4),3,39.5,89.6
Steap1 (six transmembrane epithelial antigen of the prostate 1),1,120 (active),75.4
Steap1 (six transmembrane epithelial antigen of the prostate 1),2,37.7,72.3
Steap1 (six transmembrane epithelial antigen of the prostate 1),3,55.9,52.9
"Itih5 (inter-alpha-trypsin inhibitor, heavy chain 5)",1,94.7,69.5
"Itih5 (inter-alpha-trypsin inhibitor, heavy chain 5)",2,65.9,61.4
"Itih5 (inter-alpha-trypsin inhibitor, heavy chain 5)",3,85.1,106
Nthl1 (nth (endonuclease III)-like 1 (E.coli)),1,105,110
Nthl1 (nth (endonuclease III)-like 1 (E.coli)),2,123 (active),103
Nthl1 (nth (endonuclease III)-like 1 (E.coli)),3,50.1,83.1
Ovol2 (ovo like zinc finger 2),1,68.3,57.2
Ovol2 (ovo like zinc finger 2),2,87,83.3
Ovol2 (ovo like zinc finger 2),3,55.8,71.5

The list goes on (10 carried over from the part before).
gene,siRNA no.,"GFP, % of control","viability (ATP), % of control"
Steap1 (six transmembrane epithelial antigen of the prostate 1),3,55.9,52.9
"Itih5 (inter-alpha-trypsin inhibitor, heavy chain 5)",1,94.7,69.5
"Itih5 (inter-alpha-trypsin inhibitor, heavy chain 5)",2,65.9,61.4
"Itih5 (inter-alpha-trypsin inhibitor, heavy chain 5)",3,85.1,106
Nthl1 (nth (endonuclease III)-like 1 (E.coli)),1,105,110
Nthl1 (nth (endonuclease III)-like 1 (E.coli)),2,123 (active),103
Nthl1 (nth (endonuclease III)-like 1 (E.coli)),3,50.1,83.1
Ovol2 (ovo like zinc finger 2),1,68.3,57.2
Ovol2 (ovo like zinc finger 2),2,87,83.3
Ovol2 (ovo like zinc finger 2),3,55.8,71.5
Yme1l1 (YME1-like 1 (S. cerevisiae)),1,93.9,79.3
Yme1l1 (YME1-like 1 (S. cerevisiae)),2,88.1,84.7
Yme1l1 (YME1-like 1 (S. cerevisiae)),3,136 (active),92.4
Ostf1 (osteoclast stimulating factor 1),1,83.4,61.9
Ostf1 (osteoclast stimulating factor 1),2,66.8,62.9
Ostf1 (osteoclast stimulating factor 1),3,59.6,124
Lmcd1 (LIM and cysteine-rich domains 1),1,59.9,70.1
Lmcd1 (LIM and cysteine-rich domains 1),2,79.6,79.6
Lmcd1 (LIM and cysteine-rich domains 1),3,81.2,68.3
Flt3 (FMS-like tyrosine kinase 3),1,97.3,63.8
Atg16l1 (autophagy related 16 like 1),1,41.1,32.2
Atg16l1 (autophagy related 16 like 1),2,118,104
Atg16l1 (autophagy related 16 like 1),3,34.7,44.9
"Gmcl1 (germ cell-less, spermatogenesis associated 1)",1,55.7,68.3
"Gmcl1 (germ cell-less, spermatogenesis associated 1)",2,95.8,89.2
"Gmcl1 (germ cell-less, spermatogenesis associated 1)",3,45.9,63.4
"Capg (capping actin protein, gelsolin like)",1,84.1,54.1
"Capg (capping actin protein, gelsolin like)",2,78.5,68.6
"Capg (capping actin protein, gelsolin like)",3,28.3,78.2
Dcun1d4 (defective in cullin neddylation 1 domain containing 4),1,72.4,71.9
Dcun1d4 (defective in cullin neddylation 1 domain containing 4),2,72.5,106
Dcun1d4 (defective in cullin neddylation 1 domain containing 4),3,75.6,60.3
Haghl (hydroxyacylglutathione hydrolase-like),1,55.8,86.2
Haghl (hydroxyacylglutathione hydrolase-like),2,78.6,93
Haghl (hydroxyacylglutathione hydrolase-like),3,84.8,122
Gphb5 (glycoprotein hormone beta 5),1,98.2,75.3
Gphb5 (glycoprotein hormone beta 5),2,129 (active),117
Gphb5 (glycoprotein hormone beta 5),3,105,91.1
Max (Max protein),1,96.5,65.5
Max (Max protein),2,49,49.8
Max (Max protein),3,52.5,79.4
Nkd1 (naked cuticle 1),1,62,43
Nkd1 (naked cuticle 1),2,80,89.5
Nkd1 (naked cuticle 1),3,99.5,66.8
Hdgfl2 (HDGF like 2),1,38.8,48.2
Hdgfl2 (HDGF like 2),2,67.7,39.2
Hdgfl2 (HDGF like 2),3,81.4,65.9
Slc35b1,1,81.7,108
Slc35b1,2,92.6,95.1
Slc35b1,3,109,131
